These results are taken from paper PMC8677719.

Where cells or extracts were used, other partners may take part. For some of these results: Negatives hold for the conditions tested. For some of these results: Protein sequences can lack the tags named with them. For some of these results: For at least one entry, the source does not settle the construct or the ends of the probe. For some of these results: Weaker means in comparison with the reference protein, sequence or condition of that experiment.

Experiment in all cases: EMSA
In general terms: Mobility shift assays separate free from complexed probe on a gel.

Data set [1] has as its system FLAG-As-NF-kB1 (Acanthoeca spectabilis). Conditions: EMSA: 10 mM HEPES pH 7.8, 50 mM KCl, 1 mM DTT, 1 mM EDTA, 4% glycerol, 40 ug/ml poly-dI-dC, 2X BSA, 50 ug 293T extract, 30 C 30 min; protein in a lysate after overexpression; protein details: FLAG; label: 32P.
In data set [2] the test system is FLAG-As-NF-kB2 (Acanthoeca spectabilis). Conditions: EMSA: 10 mM HEPES pH 7.8, 50 mM KCl, 1 mM DTT, 1 mM EDTA, 4% glycerol, 40 ug/ml poly-dI-dC, 2X BSA, 50 ug 293T extract, 30 C 30 min; protein in a lysate after overexpression; protein details: FLAG; label: 32P.
Data set [3] deals with FLAG-As-NF-kB3 (Acanthoeca spectabilis). Conditions: EMSA: 10 mM HEPES pH 7.8, 50 mM KCl, 1 mM DTT, 1 mM EDTA, 4% glycerol, 40 ug/ml poly-dI-dC, 2X BSA, 50 ug 293T extract, 30 C 30 min; protein in a lysate after overexpression; protein details: FLAG; label: 32P.
Data set [4] addresses T1, FLAG-Co-Cterm (Capsaspora owczarzaki) (UniProt F1ARL5).
T1 sequence (looked up, limits assumed): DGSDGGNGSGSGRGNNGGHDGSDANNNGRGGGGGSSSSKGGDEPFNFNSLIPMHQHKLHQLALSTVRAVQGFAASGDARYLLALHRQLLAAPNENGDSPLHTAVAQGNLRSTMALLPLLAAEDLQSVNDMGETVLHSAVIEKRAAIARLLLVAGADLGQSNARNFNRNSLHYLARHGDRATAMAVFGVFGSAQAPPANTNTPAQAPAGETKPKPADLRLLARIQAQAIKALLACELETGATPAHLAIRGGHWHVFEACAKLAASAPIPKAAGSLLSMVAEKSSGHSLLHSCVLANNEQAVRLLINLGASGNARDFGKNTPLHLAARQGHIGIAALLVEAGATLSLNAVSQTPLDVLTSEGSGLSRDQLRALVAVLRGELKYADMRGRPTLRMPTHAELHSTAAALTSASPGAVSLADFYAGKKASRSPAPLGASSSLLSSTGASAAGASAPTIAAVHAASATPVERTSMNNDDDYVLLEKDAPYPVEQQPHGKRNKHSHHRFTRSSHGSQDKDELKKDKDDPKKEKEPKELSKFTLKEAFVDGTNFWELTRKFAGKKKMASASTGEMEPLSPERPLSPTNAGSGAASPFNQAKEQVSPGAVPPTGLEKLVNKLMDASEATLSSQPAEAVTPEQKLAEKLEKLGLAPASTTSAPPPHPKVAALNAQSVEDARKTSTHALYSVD
Particulars: EMSA: 10 mM HEPES pH 7.8, 50 mM KCl, 1 mM DTT, 1 mM EDTA, 4% glycerol, 40 ug/ml poly-dI-dC, 2X BSA, 50 ug 293T extract, 30 C 30 min; protein in a lysate after overexpression; protein details: FLAG (N-terminal); label: 32P.

The target in data set [5] is T2, FLAG-Co-NF-kB full-length (Capsaspora owczarzaki) (UniProt F1ARL5).
T2 sequence (looked up, limits assumed): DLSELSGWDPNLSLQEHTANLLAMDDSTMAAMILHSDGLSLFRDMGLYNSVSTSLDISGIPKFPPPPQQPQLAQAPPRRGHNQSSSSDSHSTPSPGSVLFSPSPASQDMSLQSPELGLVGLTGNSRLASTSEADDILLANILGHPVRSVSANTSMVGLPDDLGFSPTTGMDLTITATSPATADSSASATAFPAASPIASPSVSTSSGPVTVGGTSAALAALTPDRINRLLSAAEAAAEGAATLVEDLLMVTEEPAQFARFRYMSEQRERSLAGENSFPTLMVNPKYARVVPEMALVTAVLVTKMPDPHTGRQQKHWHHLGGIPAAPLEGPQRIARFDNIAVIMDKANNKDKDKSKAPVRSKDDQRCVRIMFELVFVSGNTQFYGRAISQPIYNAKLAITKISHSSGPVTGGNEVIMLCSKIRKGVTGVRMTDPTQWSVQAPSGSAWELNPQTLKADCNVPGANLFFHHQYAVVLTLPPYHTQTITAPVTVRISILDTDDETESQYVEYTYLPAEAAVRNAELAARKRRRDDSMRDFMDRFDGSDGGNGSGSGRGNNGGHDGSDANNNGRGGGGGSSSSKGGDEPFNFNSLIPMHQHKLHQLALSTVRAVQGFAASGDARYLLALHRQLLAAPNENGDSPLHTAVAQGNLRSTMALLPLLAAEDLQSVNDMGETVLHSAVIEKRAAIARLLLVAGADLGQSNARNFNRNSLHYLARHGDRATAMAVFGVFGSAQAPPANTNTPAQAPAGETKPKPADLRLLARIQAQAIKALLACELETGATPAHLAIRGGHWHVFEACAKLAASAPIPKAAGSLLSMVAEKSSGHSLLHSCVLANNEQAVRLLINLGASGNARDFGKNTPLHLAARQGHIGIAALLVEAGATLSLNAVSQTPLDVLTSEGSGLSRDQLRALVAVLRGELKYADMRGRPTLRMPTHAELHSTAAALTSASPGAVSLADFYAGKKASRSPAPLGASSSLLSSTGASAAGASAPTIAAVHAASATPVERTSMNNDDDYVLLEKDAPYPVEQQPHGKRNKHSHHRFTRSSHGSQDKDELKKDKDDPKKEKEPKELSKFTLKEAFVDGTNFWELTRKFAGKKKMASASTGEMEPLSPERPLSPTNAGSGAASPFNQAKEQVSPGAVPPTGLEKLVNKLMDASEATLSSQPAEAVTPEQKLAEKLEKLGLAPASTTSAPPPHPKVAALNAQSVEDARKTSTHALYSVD
Conditions: EMSA: 10 mM HEPES pH 7.8, 50 mM KCl, 1 mM DTT, 1 mM EDTA, 4% glycerol, 40 ug/ml poly-dI-dC, 2X BSA, 50 ug 293T extract, 30 C 30 min; protein in a lysate after overexpression; protein details: FLAG (N-terminal); label: 32P.

The target of data set [6] is T3, FLAG-Co-RHD (Capsaspora owczarzaki) (UniProt F1ARL5).
T3 sequence (looked up, limits assumed): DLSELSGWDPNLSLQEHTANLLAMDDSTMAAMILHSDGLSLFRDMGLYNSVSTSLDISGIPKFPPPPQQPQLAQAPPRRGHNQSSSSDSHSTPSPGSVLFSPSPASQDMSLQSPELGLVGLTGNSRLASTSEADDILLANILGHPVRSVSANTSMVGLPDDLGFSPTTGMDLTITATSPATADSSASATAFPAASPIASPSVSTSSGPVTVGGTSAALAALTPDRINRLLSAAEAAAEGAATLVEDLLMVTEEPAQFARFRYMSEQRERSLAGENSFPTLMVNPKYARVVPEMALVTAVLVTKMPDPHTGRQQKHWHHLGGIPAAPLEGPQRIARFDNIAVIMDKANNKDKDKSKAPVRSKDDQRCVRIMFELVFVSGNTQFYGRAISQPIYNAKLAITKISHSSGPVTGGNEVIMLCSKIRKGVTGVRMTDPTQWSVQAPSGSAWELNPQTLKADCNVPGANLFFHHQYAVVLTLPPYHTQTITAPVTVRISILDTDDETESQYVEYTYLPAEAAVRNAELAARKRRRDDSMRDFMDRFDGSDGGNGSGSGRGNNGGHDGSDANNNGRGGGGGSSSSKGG
Particulars: EMSA: 10 mM HEPES pH 7.8, 50 mM KCl, 1 mM DTT, 1 mM EDTA, 4% glycerol, 40 ug/ml poly-dI-dC, 2X BSA, 50 ug 293T extract, 30 C 30 min; protein in a lysate after overexpression; protein details: FLAG (N-terminal); label: 32P.

For data set [7], the system named is FLAG-Nv-NF-kB (Nematostella vectensis). Particulars: EMSA: 10 mM HEPES pH 7.8, 50 mM KCl, 1 mM DTT, 1 mM EDTA, 4% glycerol, 40 ug/ml poly-dI-dC, 2X BSA, 50 ug 293T extract, 30 C 30 min; protein in a lysate after overexpression; protein details: FLAG; label: 32P.

“TCGAGAGGTCGGGGAATTCCCCCCCCG / TCGACGGGGGGGGAATTCCCCGACCTC [kB-site EMSA probe]”: the binding result in data set [1] is recorded as “binds more weakly”; in data set [2] it was “binds”; in data set [3] it was “binds”; in data set [4] it was “no binding”; in data set [5] it was “no binding”; in data set [6], “binds”. In addition, the binding result in data set [7] is on record as “binds”.
